Drawing on PubChem BioAssay AID1918995 (Molecular Pharmacology Branch, DTP, NCI, 2023), this text covers viability, T/C for three compounds.

The structures appear in SMILES notation. Values joined by “and” are separate entries in the source; they are usually repeats but may differ in a detail not shown here. Equal entries are not always repeated. This continues a long series; more values of the same kind are listed elsewhere.

In the test the test system is 324938-238-R-J1-PDC complex spheroid growth, % test/control. Briefly: Anticancer human tumor 324938-238-R-J1-PDC patient-derived bladder carcinoma cell line growth inhibition [AhR]. The settings on record: active compounds read low. The source says:
Multicellular complex tumor spheroid response to aryl hydrocarbon receptor antagonists in combination with a variety of drugs and investigational agents in selected tumor cell lines
The current study was undertaken to assess response to aryl hydrocarbon receptor antagonists in combination with standard-of-care drugs and investigational agents in solid tumor complex spheroid models. Complex spheroids include a stromal component modeled by human endothelial cells (HUVEC) and fibroblasts modeled by human mesenchymal stem cells (MSCs). The concentration ranges selected for each drug and investigational agent were based upon clinically achievable concentrations if the clinical Cmax of the agent was known.
Compounds. The drugs and investigational agents: BAY 2416964 (NSC825713), GNF351 (NSC835774), CH-223191 (NSC835775), CPI-455 (NSC825282), aza-TdCyd (NSC777586), decitabine (NSC127716), belinostat (NSC758774), entinostat (NSC756642), pevonedistat (NSC761192), tazemetostat (NSC777109), talazoparib (NSC765396), olaparib (NSC753686), selinexor (NSC780203), nedisertib (M3814, NSC802822), bortezomib (NSC756655), venetoclax (NSC766270), doxorubicin (NSC123127), elimusertib (BAY189344, NSC800525), ceralasertib (AZD6738, NSC777638), TAK-243 (NSC785004), alisertib (NSC759677), etoposide (NSC141540), topotecan (NSC609699), eribulin (NSC707389), gemcitabine (NSC613327), carboplatin (NSC241240), cisplatin (NSC119875), and SN-38 (NSC673596) were obtained from the National Cancer Institute (NCI) Developmental Therapeutics Program Chemical Repository (32). The FDA-approved anticancer drug set is available from the Developmental Therapeutics Program at https://dtp.cancer.gov/organization/dscb/obtaining/available plates.htm. […] The stock solutions were prepared in dimethyl sulfoxide (DMSO, Sigma-Aldrich, St. Louis, MO, cat. D2650), except for the platinum compounds which were prepared in saline (Quality Biological, Gaithersburg, MD, cat. 114-055-101), at 800-fold the tested concentration and stored at -70 degrees C prior to their use. All drugs and investigational agents were tested over a range starting from a high concentration at or near the clinical Cmax and decreasing in half-log increments. If the clinical Cmax for an agent had not been determined, the highest concentration tested was 10 microM (Table 1).
Cell Culture. All cells were maintained in an incubator at 37 degrees C and 5% CO2 with 95% humidity. The PDC lines were cultured according to standard operating procedures established by the NCI PDMR (https://pdmr.cancer.gov). Briefly, all PDCs were thawed and cultured in Matrigel-coated flasks prepared with a working solution of 1X Ham's F-12 nutrient mix, without supplementation (Invitrogen, Waltham, MA, cat. 11765054), 100 U/mL penicillin-streptomycin (Invitrogen, cat. 15140122), and 2.5% Matrigel (Corning Inc., Corning, NY, cat. 354248) for the first three passages. All PDCs were cultured in complete DMEM/F-12 media containing advanced DMEM/F-12 (Invitrogen, cat. 12634028), 4.9% defined fetal bovine serum, heat inactivated (HyClone Laboratories Inc., Logan, UT, cat. SH30070.03HI), 389 ng/mL hydrocortisone (Sigma-Aldrich, cat. H4001), 9.7 ng/mL human EGF recombinant protein (Invitrogen, cat. PHG0313), 23.4 microg/mL adenine (Sigma-Aldrich, cat. A2786), 97.3 U/mL penicillin-streptomycin (Invitrogen, cat. 15140122), 1.9 mM L-glutamine (Invitrogen, cat. 25030081), and 9.7 microM Y-27632 dihydrochloride (Tocris Bioscience, Bristol, United Kingdom, cat. 1254). The PDCs were cultured in complete DMEM/F12 media without 10 microM Y-27632 dihydrochloride for at least two passages prior to the screen. The established cell lines NCI-H1341 and […] were cultured in DMEM/F-12, HEPES (Invitrogen, cat. 11330032), 5% defined fetal bovine serum (HyClone Laboratories Inc., cat. SH30070.03), ITS premix universal culture supplement [insulin (5 microg/mL), transferrin (5 microg/mL), and selenious acid (5 ng/mL)] […]

By viability, T/C is commonly meant the result in the treated group divided by that in the control group, in per cent.
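Also: spheroids exposed to agents for seven days before viability read.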

Turning to `Cc1cncc(-c2nc(NCCc3c[nH]c4ccccc34)c3ncn(C(C)C)c3n2)c1`, the viability, T/C was 94.3% and 72.1% and 102% (compound 0.1 µM); 102% [middle of 4 runs] (compound 1 µM); 3.45% [middle of 4 runs] (compound 10 µM).

Turning to `CC(CO)NC(=O)c1cc(-c2ccc(Cl)cc2)nn(-c2cnn(C)c2)c1=O` (stereo not drawn), the viability, T/C was 100% [middle of 4 runs] (compound 0.1 µM); 92.5% and 104% and 103% (compound 0.316 µM); 96.3% and 82.6% and 79.4% (compound 1 µM); 74.7% [middle of 6 runs] (compound 3.16 µM); 68.5% [middle of 5 runs] (compound 10 µM).

Regarding `Cc1ccccc1N=Nc1ccc(NC(=O)c2ccnn2C)c(C)c1`, the viability, T/C reads like this: (compound 0.1 µM) 98.7% [middle of 4 runs]; (compound 0.316 µM) 89.4% [middle of 5 runs]; (compound 1 µM) 92.3% [middle of 4 runs]; (compound 3.16 µM) 81.4% [middle of 5 runs]; (compound 10 µM) 72.8% [middle of 5 runs].
